Protein sequences, listed by entry. Tags and fused reporters are not part of them. Lines headed by an entry give the natural chain unless they say otherwise; changes in a name come on top.
UniProt Q6I9Y2: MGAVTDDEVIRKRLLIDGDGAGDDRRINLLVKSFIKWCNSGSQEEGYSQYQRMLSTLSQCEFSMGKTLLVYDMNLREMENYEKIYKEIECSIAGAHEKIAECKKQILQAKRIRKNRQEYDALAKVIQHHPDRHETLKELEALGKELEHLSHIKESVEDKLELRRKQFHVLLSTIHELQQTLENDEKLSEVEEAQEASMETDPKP
UniProt Q6PJP8: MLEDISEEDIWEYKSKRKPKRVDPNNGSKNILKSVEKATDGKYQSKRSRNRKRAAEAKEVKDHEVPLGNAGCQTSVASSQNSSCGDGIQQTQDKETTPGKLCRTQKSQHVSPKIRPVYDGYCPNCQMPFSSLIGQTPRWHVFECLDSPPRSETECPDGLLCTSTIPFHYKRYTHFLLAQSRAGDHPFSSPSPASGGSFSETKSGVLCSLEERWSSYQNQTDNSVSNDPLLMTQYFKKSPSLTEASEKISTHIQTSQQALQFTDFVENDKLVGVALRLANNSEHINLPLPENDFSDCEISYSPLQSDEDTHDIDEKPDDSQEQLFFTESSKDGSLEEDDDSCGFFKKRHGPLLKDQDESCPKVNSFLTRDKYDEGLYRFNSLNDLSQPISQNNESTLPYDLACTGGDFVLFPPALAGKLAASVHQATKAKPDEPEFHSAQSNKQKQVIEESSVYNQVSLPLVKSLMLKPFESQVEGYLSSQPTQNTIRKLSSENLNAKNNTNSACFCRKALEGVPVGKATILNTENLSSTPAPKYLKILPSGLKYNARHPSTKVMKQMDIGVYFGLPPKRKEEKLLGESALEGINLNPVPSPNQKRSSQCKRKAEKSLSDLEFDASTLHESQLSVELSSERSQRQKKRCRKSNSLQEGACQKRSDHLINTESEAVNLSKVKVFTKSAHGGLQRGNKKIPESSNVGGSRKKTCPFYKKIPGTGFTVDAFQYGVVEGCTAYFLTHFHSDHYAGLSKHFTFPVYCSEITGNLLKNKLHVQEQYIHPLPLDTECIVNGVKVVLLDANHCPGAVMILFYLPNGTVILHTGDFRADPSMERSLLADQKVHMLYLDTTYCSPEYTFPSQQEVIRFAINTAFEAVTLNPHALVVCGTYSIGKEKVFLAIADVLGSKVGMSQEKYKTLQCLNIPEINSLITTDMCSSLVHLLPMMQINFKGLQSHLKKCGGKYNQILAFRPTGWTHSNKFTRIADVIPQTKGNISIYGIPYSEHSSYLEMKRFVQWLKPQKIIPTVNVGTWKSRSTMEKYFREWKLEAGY
UniProt Q6PH85: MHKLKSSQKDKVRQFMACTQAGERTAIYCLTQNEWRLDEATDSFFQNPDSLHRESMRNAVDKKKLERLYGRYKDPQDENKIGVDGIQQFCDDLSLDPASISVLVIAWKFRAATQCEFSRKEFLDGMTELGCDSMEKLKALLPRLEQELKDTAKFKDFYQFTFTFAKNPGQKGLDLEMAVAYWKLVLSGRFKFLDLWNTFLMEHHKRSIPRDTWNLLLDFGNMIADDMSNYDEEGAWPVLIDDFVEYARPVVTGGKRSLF
UniProt Q6UVJ0: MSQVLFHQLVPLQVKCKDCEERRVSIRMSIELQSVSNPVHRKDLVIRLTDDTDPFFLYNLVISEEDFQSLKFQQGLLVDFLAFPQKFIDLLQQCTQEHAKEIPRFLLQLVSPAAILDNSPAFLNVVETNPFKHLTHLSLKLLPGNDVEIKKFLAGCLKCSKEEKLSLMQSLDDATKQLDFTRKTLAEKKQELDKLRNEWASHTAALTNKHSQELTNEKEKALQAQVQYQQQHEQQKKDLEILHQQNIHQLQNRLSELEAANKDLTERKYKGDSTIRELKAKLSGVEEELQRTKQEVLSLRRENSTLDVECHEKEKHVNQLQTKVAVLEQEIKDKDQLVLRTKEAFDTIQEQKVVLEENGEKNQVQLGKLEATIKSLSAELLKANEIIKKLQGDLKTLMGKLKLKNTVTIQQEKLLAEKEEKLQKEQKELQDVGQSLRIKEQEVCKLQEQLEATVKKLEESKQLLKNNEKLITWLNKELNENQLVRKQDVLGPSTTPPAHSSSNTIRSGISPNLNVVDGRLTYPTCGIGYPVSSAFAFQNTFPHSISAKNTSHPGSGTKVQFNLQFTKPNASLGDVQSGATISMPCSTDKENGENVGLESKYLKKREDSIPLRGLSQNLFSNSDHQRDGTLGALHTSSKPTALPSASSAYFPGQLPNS
UniProt Q674X7: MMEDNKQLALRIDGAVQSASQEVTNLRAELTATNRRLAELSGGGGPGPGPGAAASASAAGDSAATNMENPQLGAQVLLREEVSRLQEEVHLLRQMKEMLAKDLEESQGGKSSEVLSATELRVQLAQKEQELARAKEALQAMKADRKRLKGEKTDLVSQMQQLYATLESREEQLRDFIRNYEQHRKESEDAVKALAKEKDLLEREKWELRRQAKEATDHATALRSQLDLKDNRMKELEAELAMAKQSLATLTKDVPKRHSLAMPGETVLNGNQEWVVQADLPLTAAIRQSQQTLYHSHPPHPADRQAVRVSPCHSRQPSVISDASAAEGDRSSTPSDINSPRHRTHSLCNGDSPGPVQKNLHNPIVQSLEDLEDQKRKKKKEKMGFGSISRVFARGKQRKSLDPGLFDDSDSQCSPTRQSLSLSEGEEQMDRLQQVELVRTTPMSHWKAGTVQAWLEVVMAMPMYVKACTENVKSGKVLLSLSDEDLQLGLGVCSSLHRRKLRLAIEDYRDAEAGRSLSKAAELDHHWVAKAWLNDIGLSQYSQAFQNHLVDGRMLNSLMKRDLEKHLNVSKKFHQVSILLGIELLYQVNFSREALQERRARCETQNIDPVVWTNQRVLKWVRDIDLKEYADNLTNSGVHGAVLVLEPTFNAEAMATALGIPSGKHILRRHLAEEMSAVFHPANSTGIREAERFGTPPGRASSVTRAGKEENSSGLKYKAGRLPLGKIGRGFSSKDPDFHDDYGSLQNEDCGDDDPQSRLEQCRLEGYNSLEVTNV
UniProt Q6UW68: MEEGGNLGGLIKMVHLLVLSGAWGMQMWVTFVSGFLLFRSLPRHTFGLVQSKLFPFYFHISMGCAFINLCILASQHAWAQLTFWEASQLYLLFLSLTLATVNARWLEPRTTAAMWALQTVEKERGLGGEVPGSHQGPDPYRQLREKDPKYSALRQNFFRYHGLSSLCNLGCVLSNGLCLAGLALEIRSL
UniProt Q6NUJ5: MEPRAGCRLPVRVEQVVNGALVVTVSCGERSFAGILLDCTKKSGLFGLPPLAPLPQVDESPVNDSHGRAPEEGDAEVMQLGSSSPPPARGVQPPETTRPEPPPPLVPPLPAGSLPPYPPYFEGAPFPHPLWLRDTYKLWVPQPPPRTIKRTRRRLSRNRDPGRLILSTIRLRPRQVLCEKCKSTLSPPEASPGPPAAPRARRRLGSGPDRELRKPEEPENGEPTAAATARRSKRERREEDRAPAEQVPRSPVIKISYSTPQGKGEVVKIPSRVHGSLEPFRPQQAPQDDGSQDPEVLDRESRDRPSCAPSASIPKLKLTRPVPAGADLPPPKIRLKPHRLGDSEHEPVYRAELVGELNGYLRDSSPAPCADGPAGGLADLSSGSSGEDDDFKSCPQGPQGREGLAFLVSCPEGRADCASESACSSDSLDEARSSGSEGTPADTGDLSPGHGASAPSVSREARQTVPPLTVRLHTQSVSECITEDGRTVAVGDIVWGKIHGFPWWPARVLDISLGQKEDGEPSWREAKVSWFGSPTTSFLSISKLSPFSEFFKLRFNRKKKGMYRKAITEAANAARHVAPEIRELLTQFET
UniProt Q6P4R8, whole entry: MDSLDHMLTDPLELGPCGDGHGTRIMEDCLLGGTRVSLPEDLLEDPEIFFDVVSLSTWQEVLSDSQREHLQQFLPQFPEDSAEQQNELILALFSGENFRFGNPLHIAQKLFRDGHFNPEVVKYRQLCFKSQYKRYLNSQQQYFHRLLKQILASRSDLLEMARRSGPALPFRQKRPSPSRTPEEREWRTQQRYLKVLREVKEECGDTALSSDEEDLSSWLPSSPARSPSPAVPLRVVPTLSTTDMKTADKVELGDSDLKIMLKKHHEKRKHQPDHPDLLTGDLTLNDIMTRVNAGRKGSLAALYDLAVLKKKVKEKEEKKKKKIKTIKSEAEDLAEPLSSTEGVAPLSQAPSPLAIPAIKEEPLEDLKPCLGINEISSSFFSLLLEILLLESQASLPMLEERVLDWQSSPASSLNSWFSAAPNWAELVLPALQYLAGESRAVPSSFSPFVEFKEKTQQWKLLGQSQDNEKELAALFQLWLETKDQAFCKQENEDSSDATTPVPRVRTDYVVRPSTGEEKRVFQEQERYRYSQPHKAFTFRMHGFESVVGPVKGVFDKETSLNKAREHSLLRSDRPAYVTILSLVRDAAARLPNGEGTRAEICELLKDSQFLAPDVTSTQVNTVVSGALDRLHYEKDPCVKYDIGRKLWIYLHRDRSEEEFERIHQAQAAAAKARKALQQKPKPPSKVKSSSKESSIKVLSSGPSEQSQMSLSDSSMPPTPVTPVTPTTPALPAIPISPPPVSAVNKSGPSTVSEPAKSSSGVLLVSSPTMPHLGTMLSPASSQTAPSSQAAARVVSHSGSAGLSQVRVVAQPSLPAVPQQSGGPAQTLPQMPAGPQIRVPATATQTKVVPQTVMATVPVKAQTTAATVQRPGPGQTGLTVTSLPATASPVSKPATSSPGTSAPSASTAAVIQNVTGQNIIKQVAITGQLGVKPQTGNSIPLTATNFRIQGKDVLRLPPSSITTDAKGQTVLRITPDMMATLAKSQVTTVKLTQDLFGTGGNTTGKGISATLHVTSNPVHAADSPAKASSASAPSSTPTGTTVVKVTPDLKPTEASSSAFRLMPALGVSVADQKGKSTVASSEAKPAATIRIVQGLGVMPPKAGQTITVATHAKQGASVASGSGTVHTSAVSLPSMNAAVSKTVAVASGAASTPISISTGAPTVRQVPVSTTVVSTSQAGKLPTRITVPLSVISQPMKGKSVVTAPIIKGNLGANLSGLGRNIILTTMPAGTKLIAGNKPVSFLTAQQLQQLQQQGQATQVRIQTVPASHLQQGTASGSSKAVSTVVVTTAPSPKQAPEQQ
UniProt Q6N063: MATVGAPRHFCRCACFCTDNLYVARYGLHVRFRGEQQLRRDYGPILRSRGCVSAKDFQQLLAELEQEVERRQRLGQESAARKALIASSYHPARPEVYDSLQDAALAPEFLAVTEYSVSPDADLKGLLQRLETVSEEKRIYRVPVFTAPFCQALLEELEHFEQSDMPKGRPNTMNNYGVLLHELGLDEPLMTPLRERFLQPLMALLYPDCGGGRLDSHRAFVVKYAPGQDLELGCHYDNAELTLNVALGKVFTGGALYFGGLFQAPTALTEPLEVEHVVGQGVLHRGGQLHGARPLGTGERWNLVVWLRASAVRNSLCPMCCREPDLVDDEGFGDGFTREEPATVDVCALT
UniProt Q6ULP2: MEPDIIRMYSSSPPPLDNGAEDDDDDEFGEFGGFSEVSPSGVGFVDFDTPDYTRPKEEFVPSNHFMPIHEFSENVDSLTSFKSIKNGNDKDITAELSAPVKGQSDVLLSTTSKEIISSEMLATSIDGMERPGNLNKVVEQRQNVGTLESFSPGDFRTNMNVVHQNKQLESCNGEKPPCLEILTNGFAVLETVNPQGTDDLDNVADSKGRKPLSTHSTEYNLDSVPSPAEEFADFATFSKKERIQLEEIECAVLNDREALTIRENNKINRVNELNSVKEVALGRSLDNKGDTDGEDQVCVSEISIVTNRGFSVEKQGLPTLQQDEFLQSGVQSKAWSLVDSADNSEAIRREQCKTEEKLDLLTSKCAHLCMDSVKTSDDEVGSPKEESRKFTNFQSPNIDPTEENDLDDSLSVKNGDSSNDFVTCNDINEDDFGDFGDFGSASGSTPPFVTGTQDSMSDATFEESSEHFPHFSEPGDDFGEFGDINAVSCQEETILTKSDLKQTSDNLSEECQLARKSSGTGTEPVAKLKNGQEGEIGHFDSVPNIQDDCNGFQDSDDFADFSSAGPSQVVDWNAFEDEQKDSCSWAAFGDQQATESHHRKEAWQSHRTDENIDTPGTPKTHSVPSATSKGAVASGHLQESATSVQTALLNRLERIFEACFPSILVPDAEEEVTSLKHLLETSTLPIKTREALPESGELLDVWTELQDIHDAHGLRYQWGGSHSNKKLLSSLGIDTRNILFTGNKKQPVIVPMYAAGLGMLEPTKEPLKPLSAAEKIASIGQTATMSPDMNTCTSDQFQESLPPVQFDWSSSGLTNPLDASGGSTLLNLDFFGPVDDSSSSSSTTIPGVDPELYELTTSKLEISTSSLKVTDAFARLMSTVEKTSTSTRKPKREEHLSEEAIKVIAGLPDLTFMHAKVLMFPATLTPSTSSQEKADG

Some of the results follow. Most entries show no effect beyond the scatter of the controls.
The targets below were run with Cc1nc(Nc2ncc(C(=O)Nc3c(C)cccc3Cl)s2)cc(N2CCN(CCO)CC2)n1 [dasatinib] (assay: log2 fold change of tryptic peptide abundance, ligand vs vehicle (limited proteolysis) (log2 ratio); higher = more trypsin-susceptible (destabilized)). Details: ligand concentration: 5 uM; sample: K562 cleared lysate.
With “THOC7 (peptide sequence: LLIDGDGAGDDR, peptide start residue: 14) (UniProt Q6I9Y2)” the log2 fold change was 0.535. Work on “UniProt Q6PJP8 (peptide sequence: SGVLCSLEER, peptide start residue: 203)” yielded a log2 fold change of 0.256. With “UniProt Q6PH85 (peptide sequence: LDEATDSFFQNPDSLHR, peptide start residue: 37)” the log2 fold change was -0.172. Work on “SASS6 (peptide sequence: MSIELQSVSNPVHRK, peptide start residue: 28) (UniProt Q6UVJ0)” yielded a log2 fold change of 0.135. Target “KAZN (peptide sequence: VQLAQKEQELAR, peptide start residue: 122) (UniProt Q674X7)” has a log2 fold change of 0.172. Work on “TMEM205 (peptide sequence: GLGGEVPGSHQGPDPYR, peptide start residue: 125) (UniProt Q6UW68)” yielded a log2 fold change of 0.218. With “PWWP2B (peptide sequence: LGDSEHEPVYR, peptide start residue: 340) (UniProt Q6NUJ5)” the log2 fold change was -0.309. In the case of “NFRKB (peptide sequence: ITPDMMATLAK, peptide start residue: 972) (UniProt Q6P4R8)”, the log2 fold change is reported as -0.26. With “OGFOD2 (peptide sequence: GGQLHGARPLGTGER, peptide start residue: 286) (UniProt Q6N063)” the log2 fold change was -0.378. Work on “AFTPH (peptide sequence: ERIQLEEIECAVLNDR, peptide start residue: 241) (UniProt Q6ULP2)” yielded a log2 fold change of -1.08.

Source: the supplement of paper PMC12819154, “High-throughput peptide-centric local stability assay extends protein–ligand identification to membrane proteins, tissues and bacteria” (Nature Structural & Molecular Biology, 2025)
